Reference: PubChem BioAssay AID1259425 (University of Nebraska Medical Center, 2018)

Assay: 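Seek colon cancer weak points whose silencing resembles KSR1 loss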 (primary screen)
Cells: HCT116 human colon cancer cells
Reagent: siRNA pool against human genes, 50 nM siRNA
Read-out: 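After 50 nM siRNA pool, branched-DNA assay measures six marker transcripts per well, minus blank, normalised to the geometric mean of two housekeeping transcripts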
Direction: BNIP3L mRNA: higher = more BNIP3L transcript after knockdown; NDRG1 mRNA: higher = more NDRG1 transcript after knockdown; BNIP3 mRNA: higher = more BNIP3 transcript after knockdown; ALDOC mRNA: higher = more ALDOC transcript after knockdown; ACSL5 mRNA: higher = more ACSL5 transcript after knockdown
Shown is an unselected part of about 14,000 reagents tested. Reagent sequences are not shown. Not given: the time to read-out.

Gene	BNIP3L mRNA, set 1	NDRG1 mRNA, set 1	BNIP3 mRNA, set 1	ALDOC mRNA, set 1	ACSL5 mRNA, set 1
POLDIP2 (GeneID 26073)	0.0971	0.173	0.474	0.0417	0.0499
NTHL1 (GeneID 4913)	0.122	0.196	0.283	0.0556	0.0697
COG2 (GeneID 22796)	0.122	0.14	0.341	0.0527	0.116
TLNRD1 (GeneID 59274)	0.0631	0.528	0.312	0.00765	0.0916
STON2 (GeneID 85439)	0.162	0.431	0.264	0.0657	0.303
PRKAR2B (GeneID 5577)	0.123	0.236	0.374	0.0151	0.48
PTGES2 (GeneID 80142)	0.133	0.229	0.278	0.0199	0.248
STK24 (GeneID 8428)	0.162	0.18	0.315	0.00457	0.228
PLA2G4C (GeneID 8605)	0.0661	0.251	0.273	0.0335	0.123
NFASC (GeneID 23114)	0.228	0.625	0.305	0.0301	0.106
SEMA5B (GeneID 54437)	0.118	0.246	0.308	0.0738	0.158
SSPN (GeneID 8082)	0.195	0.12	0.543	0.0487	0.198
CAMK2G (GeneID 818)	0.101	0.196	0.378	0.0188	0.152
CETN1 (GeneID 1068)	0.141	0.48	0.448	0.00892	0.127
ZMYND15 (GeneID 84225)	0.244	0.218	0.303	0.0998	0.322
CDC42EP3 (GeneID 10602)	0.144	0.247	0.35	0.0247	0.293
SH2D4A (GeneID 63898)	0.0704	0.119	0.257	0.0292	0.122
LTBP2 (GeneID 4053)	0.152	0.0636	0.304	0.0168	0.356
GSDMB (GeneID 55876)	0.123	0.154	0.209	0.0129	0.125
NPIPB3 (GeneID 23117)	0.111	0.395	0.22	0.0216	0.133
FAM20C (GeneID 56975)	0.157	0.347	0.244	0.0296	0.193

Taken from above:
Value for STK24 (GeneID 8428) in “BNIP3L mRNA, set 1”: 0.162
Under “BNIP3L mRNA, set 1”, CAMK2G (GeneID 818) reads 0.101
COG2 (GeneID 22796), NDRG1 mRNA, set 1 = 0.14
For “ALDOC mRNA, set 1”, CETN1 (GeneID 1068) has 0.00892
LTBP2 (GeneID 4053), ALDOC mRNA, set 1 = 0.0168

Continued.
Gene	BNIP3L mRNA, set 1	NDRG1 mRNA, set 1	BNIP3 mRNA, set 1	ALDOC mRNA, set 1	ACSL5 mRNA, set 1
SMU1 (GeneID 55234)	0.15	0.438	0.352	0.0447	0.23
HYI (GeneID 81888)	0.167	0.381	0.349	0.0217	0.291
KRCC1 (GeneID 51315)	0.215	0.149	0.341	0.0364	0.217
PUM2 (GeneID 23369)	0.0983	0.202	0.32	0.017	0.232
MED4 (GeneID 29079)	0.0778	0.515	0.231	0.0428	0.12
GCM2 (GeneID 9247)	0.171	0.135	0.372	0.0161	0.295
CALCA (GeneID 796)	0.072	0.192	0.195	0.0108	0.115
RRP1 (GeneID 8568)	0.161	0.188	0.348	0.0239	0.162
STAB2 (GeneID 55576)	0.0952	0.441	0.344	0.0246	0.229
PDLIM2 (GeneID 64236)	0.106	0.261	0.193	0.0114	0.177
SYT3 (GeneID 84258)	0.217	0.171	0.333	0.121	0.209
MACROH2A2 (GeneID 55506)	0.144	0.712	0.4	0.0318	0.196
ICAM4 (GeneID 3386)	0.223	0.851	0.328	0.0532	0.386
PMEPA1 (GeneID 56937)	0.221	0.536	0.508	0.0329	0.667
FAM114A2 (GeneID 10827)	0.129	0.18	0.247	0.0209	0.362
LAIR1 (GeneID 3903)	0.0905	0.0905	0.306	0.0161	0.195
S100B (GeneID 6285)	0.0932	0.0961	0.226	0.00704	0.204
ACIN1 (GeneID 22985)	0.0954	0.133	0.248	0.0391	0.134
EML1 (GeneID 2009)	0.1	0.122	0.346	0.0303	0.162
CD5L (GeneID 922)	0.106	0.135	0.278	0.0319	0.138
CYP1B1 (GeneID 1545)	0.0688	0.0755	0.305	0.0226	0.168
EPHX4 (GeneID 253152)	0.136	0.4	0.267	0.033	0.188
GJB5 (GeneID 2709)	0.123	0.216	0.325	0.0181	0.0876
BTN2A3P (GeneID 54718)	0.151	0.189	0.427	0.0287	0.215
ECT2 (GeneID 1894)	0.0909	0.574	0.407	0.0172	0.292
PIBF1 (GeneID 10464)	0.135	0.079	0.313	0.0487	0.177
UTP18 (GeneID 51096)	0.126	0.413	0.58	0.0722	0.386
PTGR1 (GeneID 22949)	0.0798	0.163	0.261	0.0289	0.165
GNL3LP1 (GeneID 80060)	0.131	0.114	0.244	0.0182	0.17
